{"source": "PubChem BioAssay AID504834", "about": "(National Center for Advancing Translational Sciences (NCATS), 2011)", "note": "Among all 320,000 compounds or so, about 22,000 (6.9%) were called active. Inconclusive results, whose numbers are uncertain, are shown with a selection of clear calls. Calls follow the shape of the dose curve; as a rule, active = well fitted inhibition curve with a large enough effect; inconclusive = small, poorly fitted or top-dose-only effect, or another doubt; inactive = no such curve, though single readings can be large or run the other way. A potency beside an inconclusive call is a rough fit, not a confirmed value. % is scaled to controls: 0 for no effect and ±100 for the full control effect; potency is read from the fitted curve at half-maximal effect."}
{"test": "Primary qHTS for delayed death inhibitors of the malarial parasite plastid, 96 hour incubation", "details": "P. falciparum luciferase reporter growth; series mostly up to 28.7 µM", "in_short": "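Delayed-death screen, second-generation endpoint: infected erythrocytes, 2% hematocrit, 0.05% parasitemia final; 96 hours at 37 C, 5% CO2; luciferase detection reagent; luminescence decrease equals reduced growth.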"}
{"smiles": "O=C(CSc1n[nH]c(=O)[nH]c1=O)c1cccc([N+](=O)[O-])c1", "Potency": "inactive"}
{"smiles": "CC(C)CCOC(=O)C1C2C=CC3(CN(Cc4cccs4)C(=O)C13)O2", "note": "(stereo not given)", "Potency": "inconclusive: 11.7 µM [inhibitor, single point]"}
{"smiles": "Cc1ccc(NC(=O)c2cccc(N3C(=O)C4C5CCC(C5)C4C3=O)c2)c(C)c1", "note": "(stereo not given)", "Potency": "inactive"}
{"smiles": "CCOc1ccc(C(=O)COC(=O)CC)cc1", "Potency": "inconclusive: 3.29 µM [inhibitor, single point]"}
{"smiles": "Nc1nc(Nc2cccc(F)c2)nc(N2CCOCC2)c1[N+](=O)[O-]", "Potency": "inconclusive: 18.5 µM [inhibitor, single point]"}
{"smiles": "O=C(NN1C(=O)/C(=C/c2ccc(O)cc2)SC1=S)c1cccc(O)c1", "Potency": "inconclusive: 11.7 µM [inhibitor, partial curve]"}
{"smiles": "N#Cc1c(N)[nH]c(=S)c(C#N)c1-c1ccccc1", "Potency": "inconclusive: 0.0104 µM [inhibitor, full curve, poor fit]"}
{"smiles": "CCn1cc(C(=O)NCc2ccco2)c(=O)c2cc(F)c(N3CCN(C(=O)c4ccco4)CC3)cc21", "Potency": "inactive"}
{"smiles": "CCC(=O)N1CCC2(CC1)Oc1ccc(F)cc1C(=O)C21CC(c2ccccc2)=NO1", "note": "(stereo not given)", "Potency": "inconclusive: 18.5 µM [inhibitor, single point]"}
{"smiles": "COc1ccc(C2C(C(=O)c3ccco3)=C(O)C(=O)N2CC2CCCO2)cc1OC", "note": "(stereo not given)", "Potency": "inactive"}
{"smiles": "CCCc1nn(C)c(C(N)=O)c1[N+](=O)[O-]", "Potency": "inconclusive: 0.928 µM [inhibitor, partial curve, poor fit]"}
{"smiles": "Cc1cc(C2=NNC(=NC3CC3)SC2)c(C)n1-c1c(C)n(C)n(-c2ccccc2)c1=O", "Potency": "inactive"}
{"smiles": "CC1(C)CC(NC(=O)CCc2ccccc2)CC(C)(C)N1", "Potency": "inconclusive: 18.5 µM [inhibitor, single point]"}
{"smiles": "CCN(C(=O)CSc1nnc(Nc2ccccc2)s1)C1CCS(=O)(=O)C1", "note": "(stereo not given)", "Potency": "inconclusive: 2.94 µM [inhibitor, partial curve, poor fit]"}
{"smiles": "COc1ccccc1-n1c(SCC(=O)N2CCOCC2)nc(O)cc1=O", "Potency": "inconclusive: 18.5 µM [inhibitor, single point]"}
{"smiles": "COc1ccc(C(=O)NCCSCc2ccc(C)cc2)cc1", "Potency": "inconclusive: 2.62 µM [inhibitor, full curve, poor fit]"}
{"smiles": "CCOC(=O)C(C)OC(=O)C1=C(C)NC(=O)NC1c1ccc2c(c1)OCO2", "note": "(stereo not given)", "Potency": "inconclusive: 14.7 µM [inhibitor, single point]"}
{"smiles": "O=C(Nc1ccc(Cl)c(S(=O)(=O)N2CCOCC2)c1)C1CCC1", "Potency": "inconclusive: 18.5 µM [inhibitor, single point]"}
{"smiles": "O=[N+]([O-])/C=C1\\C=CC=CN1Cc1ccc(Cl)cc1", "Potency": "inactive"}
{"smiles": "Cc1cc2nc3s/c(=C/c4ccc(-c5ccccc5C(=O)O)o4)c(=O)n3c2cc1C", "Potency": "inactive"}
{"smiles": "CCNc1nc(NCC)n2c(SCC(=O)Nc3ccc(F)cc3)nnc2n1", "Potency": "inconclusive: 1.31 µM [inhibitor, partial curve, poor fit]"}
{"smiles": "CCN(CC)C(=O)C1CCCN(Cc2ccc(OC)c(C)c2)C1", "note": "(stereo not given)", "Potency": "inconclusive: 0.294 µM [inhibitor, partial curve, poor fit]"}
{"smiles": "CCN(CC(=O)N1CCN(c2ccccc2)CC1)S(=O)(=O)c1ccc(C)cc1", "Potency": "inconclusive: 4.15 µM [inhibitor, partial curve]"}
{"smiles": "CCc1nnc(NC(=O)CSc2nc(C)c3c(c2C#N)CCCC3)s1", "Potency": "inactive"}
{"smiles": "CS(=O)(=O)c1cccc(C(=O)NC(c2ccccc2)c2ccccc2)c1", "activity change, negative = inhibition": "inactive: 2.28% [at 5.75 µM]"}
{"smiles": "CCOC(=O)C(=CNc1cscc1S(=O)(=O)C(C)C)C(=O)OCC", "Potency": "inconclusive: 18.5 µM [inhibitor, single point]"}
{"smiles": "CN1CC(=O)N(C)c2ncn(Cc3ccccc3)c2C1=O", "Potency": "active: 8.28 µM"}
{"smiles": "COc1nc(N=C(N)N)nc2ccc(C)cc12", "Potency": "inconclusive: 14.7 µM [inhibitor, single point]"}
{"smiles": "O=C(NC1CC1)c1ccc(COc2ccc(F)cc2)o1", "Potency": "inconclusive: 6.57 µM [inhibitor, single point]"}
{"smiles": "CC(=O)OC1c2ccccc2C(=O)N1Cc1ccccc1", "note": "(stereo not given)", "Potency": "inconclusive: 7.38 µM [inhibitor, partial curve, poor fit]"}
{"smiles": "COC(CNC(=O)c1ccc(CS(=O)(=O)c2ccc(C)cc2)o1)OC", "Potency": "active: 2.62 µM"}
{"smiles": "CCc1nnc(NC(=O)C2=CCN(S(=O)(=O)c3ccccc3)CC2)s1", "Potency": "inconclusive: 9.28 µM [inhibitor, single point]"}
{"smiles": "CSc1nc(C)c2c(n1)N(c1ccc(C(C)C)cc1)CC2", "Potency": "inactive"}
{"smiles": "S=C(NCCc1ccc(Cl)cc1)NC1CCCC1", "Potency": "inconclusive: 16.5 µM [inhibitor, partial curve, poor fit]"}
{"smiles": "Cc1ccccc1-n1c(C)cc(/C=C2\\NC(=O)NC2=O)c1C", "Potency": "inactive"}
{"smiles": "CCOC(=O)C1=C(C(F)(F)F)Nc2ncnn2C1c1ccc(OC)cc1OC", "note": "(stereo not given)", "Potency": "inactive"}
{"smiles": "O=C(NC(=S)Nc1cccc([N+](=O)[O-])c1)c1ccco1", "Potency": "active: 8.28 µM"}
{"smiles": "CC1=C(C(=O)Nc2ccccc2)C(c2ccccc2)N2C(=O)CSC2=N1", "note": "(stereo not given)", "Potency": "inactive"}
{"smiles": "Cc1cccn2c(=O)c(/C=C(\\C#N)C(=O)NC3CCS(=O)(=O)C3)c(Oc3ccccc3Cl)nc12", "note": "(stereo not given)", "Potency": "inconclusive: 1.17 µM [inhibitor, full curve, poor fit]"}
{"smiles": "O=C(Nc1ccccc1N1CCOCC1)c1ccc(Cl)c(S(=O)(=O)N2CCCC2)c1", "Potency": "inconclusive: 4.15 µM [inhibitor, partial curve]"}
{"smiles": "COCc1cc(=O)n2[nH]c(-c3ccco3)cc2n1", "Potency": "inactive"}
{"smiles": "Nc1nonc1-n1nnc(C(=O)N/N=C/c2ccc(F)cc2)c1-c1cccs1", "Potency": "inconclusive: 18.5 µM [inhibitor, single point]"}
{"smiles": "COc1ccc(C(=O)NCC(c2ccco2)N2CCCC2)cc1S(=O)(=O)N1CCCCC1C", "note": "(stereo not given)", "Potency": "active: 5.22 µM"}
{"smiles": "COc1ccc(-c2nn(-c3ccccc3)cc2/C=C/C(=O)NCCCn2ccnc2)cc1OC", "Potency": "active: 10.4 µM"}
{"smiles": "Cc1ccc(S(=O)(=O)N2CC(C)N(C(=O)N3CCOCC3)C2C)cc1", "note": "(stereo not given)", "Potency": "inactive"}
{"smiles": "COC(=O)c1ccc(C(NC(=O)OCc2ccccc2)/C(C)=C/[C@@H](C)C(=O)NCc2ccc(-c3ccccc3)cc2)cc1", "note": "(stereo not given in full)", "Potency": "inconclusive: 11.7 µM [inhibitor, single point]"}
{"smiles": "Cc1ccc(NC(=O)COc2coc(CN3CCN(c4ccccc4)CC3)cc2=O)cc1", "Potency": "active: 4.65 µM"}
{"smiles": "COc1ccc(OC)c(NC(=O)NCCc2cccc(Cl)c2)c1", "Potency": "inactive"}
{"smiles": "CSc1nsc(SC)c1C(=O)N1CCN(S(=O)(=O)c2ccc(C)cc2)C1C", "note": "(stereo not given)", "Potency": "inconclusive: 8.28 µM [inhibitor, partial curve, poor fit]"}
{"smiles": "COc1ccc(S(=O)(=O)N2CCOCC2)cc1NC(=O)c1ccc2c(c1)OCCO2", "Potency": "inconclusive: 18.5 µM [inhibitor, single point]"}
{"smiles": "O=S(=O)(NC1CCCCC1)c1ccc(Cl)nc1", "Potency": "inactive"}
{"smiles": "CO/N=C(/C(=O)N[C@@H]1C(=O)N2C(C(=O)O)=C(COC(N)=O)CS[C@H]12)c1ccco1", "Potency": "active: 16.9 µM"}
{"smiles": "CN1C(C(=O)Nc2ccccn2)C(=O)c2sc(Cl)cc2S1(=O)=O", "note": "(stereo not given)", "Potency": "inconclusive: 16.9 µM [inhibitor, single point]"}
{"smiles": "Cn1cccc1C(=O)NC(=O)COC(=O)C12CC3CC(CC(O)(C3)C1)C2", "Potency": "inactive"}
{"smiles": "CS(=O)(=O)c1ccc(NC(=O)c2cccc(-n3cnnn3)c2)cc1", "Potency": "inconclusive: 18.5 µM [inhibitor, single point]"}
{"smiles": "COC(=O)/C(C#N)=C/c1c[nH]c2ccccc12", "Potency": "inconclusive: 0.185 µM [inhibitor, partial curve, poor fit]"}
{"smiles": "CCn1c(C)[n+](CC(O)COCC2CC=CCC2)c2ccccc21", "note": "(stereo not given)", "Potency": "inconclusive: 0.828 µM [inhibitor, full curve, poor fit]"}
{"smiles": "CCCOc1ccc(N2C(=O)CC(N3CCN(S(=O)(=O)c4ccccc4)CC3)C2=O)cc1", "note": "(stereo not given)", "Potency": "inconclusive: 0.0033 µM [inhibitor, full curve, poor fit]"}
{"smiles": "CC(C)C(NS(=O)(=O)c1cccc(C(F)(F)F)c1)C(=O)NCc1cccs1", "note": "(stereo not given)", "Potency": "inconclusive: 18.5 µM [inhibitor, single point]"}
{"smiles": "CCc1cccc(NC(=O)C2CCCN(S(=O)(=O)c3cccnc3)C2)c1", "note": "(stereo not given)", "Potency": "inconclusive: 18.5 µM [inhibitor, single point]"}
{"smiles": "COC(=O)C1=C(C)N=C2SCCC(=O)N2C1c1ccc(C(=O)OC)cc1", "note": "(stereo not given)", "Potency": "inconclusive: 16.5 µM [inhibitor, partial curve, poor fit]"}
{"smiles": "O=C(COc1ccc(F)cc1)Nc1c(C(=O)N2CCC(N3CCCCC3)CC2)oc2ccccc12", "Potency": "inconclusive: 11.7 µM [inhibitor, single point]"}
{"smiles": "Cc1c(C(=O)N(Cc2ccccc2)Cc2cccnc2)cnn1-c1ccc(F)cc1", "Potency": "inconclusive: 18.5 µM [inhibitor, single point]"}
{"smiles": "COc1cccc(NC(=O)c2sc3nc4n(c(=O)c3c2C)CCC4)c1", "Potency": "inconclusive: 3.7 µM [inhibitor, partial curve, poor fit]"}
{"smiles": "COc1ccc(S(=O)(=O)N2CCCc3ccccc32)cc1[N+](=O)[O-]", "Potency": "inactive"}
{"smiles": "CN(c1ccccc1)S(=O)(=O)c1ccc(C(=O)Nc2nnc(-c3ccco3)o2)cc1", "Potency": "active: 7.38 µM"}
{"smiles": "CC(=O)c1sc(NC(=O)c2ccco2)nc1-c1ccccc1", "Potency": "inactive"}
{"smiles": "CC(C)CN1CCN(CC#Cc2ccccc2)CC1CCO", "note": "(stereo not given)", "Potency": "active: 11.7 µM"}
{"smiles": "Cc1cc(=O)[nH]c(N/N=C/c2c(C)nn(-c3ccc(F)cc3)c2Cl)n1", "Potency": "active: 10.4 µM"}
{"smiles": "CCOC(=O)/C=C1/SCC(=O)N1CC(=O)Nc1cccc(F)c1", "Potency": "inconclusive: 11.7 µM [inhibitor, single point]"}
